Experimental data published in article doi:10.1101/2024.09.04.610270.
No constants are given. Whether binding was seen depends on the method and setting. Some binding calls cover weakened binding; strength is not graded here.

By UniProt entry, the sequences of proteins in these tests, tags left out.
UniProt Q94A52: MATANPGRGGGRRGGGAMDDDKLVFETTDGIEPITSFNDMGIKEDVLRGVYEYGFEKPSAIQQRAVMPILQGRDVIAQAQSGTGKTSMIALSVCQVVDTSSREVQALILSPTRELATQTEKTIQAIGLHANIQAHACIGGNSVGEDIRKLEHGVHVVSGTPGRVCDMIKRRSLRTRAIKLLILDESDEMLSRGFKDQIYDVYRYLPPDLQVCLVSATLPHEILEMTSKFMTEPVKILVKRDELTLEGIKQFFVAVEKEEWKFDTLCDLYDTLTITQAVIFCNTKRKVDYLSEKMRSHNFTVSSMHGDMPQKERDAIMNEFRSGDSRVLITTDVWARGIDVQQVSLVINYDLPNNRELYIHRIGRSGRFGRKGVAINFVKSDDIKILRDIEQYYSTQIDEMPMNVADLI

T1: arginine/serine-rich zinc knuckle-containing protein 32 (RS2Z32), native full-length, yeast two-hybrid bait (Arabidopsis thaliana) (UniProt Q9FYB7)
T1 sequence: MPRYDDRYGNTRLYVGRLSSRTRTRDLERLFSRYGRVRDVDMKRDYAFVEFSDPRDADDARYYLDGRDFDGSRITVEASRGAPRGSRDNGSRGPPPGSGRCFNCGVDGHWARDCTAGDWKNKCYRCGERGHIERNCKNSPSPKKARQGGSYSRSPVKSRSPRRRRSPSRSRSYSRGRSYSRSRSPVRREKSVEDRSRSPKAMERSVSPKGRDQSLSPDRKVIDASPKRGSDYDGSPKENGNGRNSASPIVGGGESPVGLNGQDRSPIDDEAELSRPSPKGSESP

T2: arginine/serine-rich zinc knuckle-containing protein 33 (RS2Z33), native full-length, yeast two-hybrid bait (Arabidopsis thaliana) (UniProt Q8VYA5)
T2 sequence: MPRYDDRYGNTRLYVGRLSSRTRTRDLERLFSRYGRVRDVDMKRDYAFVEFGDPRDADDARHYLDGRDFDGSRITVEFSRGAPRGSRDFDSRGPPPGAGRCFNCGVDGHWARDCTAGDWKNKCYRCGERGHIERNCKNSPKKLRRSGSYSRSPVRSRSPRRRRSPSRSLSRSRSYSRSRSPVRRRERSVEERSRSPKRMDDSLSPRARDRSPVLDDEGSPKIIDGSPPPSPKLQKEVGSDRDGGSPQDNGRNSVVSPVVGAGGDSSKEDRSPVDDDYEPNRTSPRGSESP


How the values were obtained:
[1] = molecular target: T1, arginine/serine-rich zinc knuckle-containing protein 32 (RS2Z32), native full-length, yeast two-hybrid bait (Arabidopsis thaliana); assay: two-hybrid
[2] = molecular target: T2, arginine/serine-rich zinc knuckle-containing protein 33 (RS2Z33), native full-length, yeast two-hybrid bait (Arabidopsis thaliana); assay: two-hybrid

| binding [1] | binding [2] | Molecule |
| --- | --- | --- |
| no binding | no binding | eIF4AIII (from UniProt Q94A52 1-408) |
| binds weakly | binds weakly | SCL30a (protein, UniProt Q9LHP2 1-262) MRGRSYTPSPPRGYGRRGRSPSPRGRFGGSRDSDLPTSLLVRNLRHDCRQEDLRRPFEQFGPVKDIYLPRDYYTGDPRGFGFIQFMDPADAAEAKHQMDGYLLLGRELTVVFAEENRKKPTEMRTRDRGGRSNRFQDRRRSPPRYSRSPPPRRGRRSRSRSRGYNSPPAKRHQSRSVSPQDRRYEKERSYSRSPPHNGSRVRSGSPGRVKSHSRSPRRSVSPRKNRSYTPEQARSQSPVPRQSRSPTPVPRGAQNGDRSPSQ |
| no binding | no binding | AFC2 (enzyme, UniProt P51567 1-427) MEMERVHEFPHTHMDRRPRKRARLGWDVLPQATKAQVGMFCGQEIGNISSFASSGAPSDNSSSLCVKGVARNGSPPWREDDKDGHYIFELGDDLTPRYKIYSKMGEGTFGQVLECWDRERKEMVAVKIVRGVKKYREAAMIEIEMLQQLGKHDKGGNRCVQIRNWFDYRNHICIVFEKLGSSLYDFLRKNNYRSFPIDLVREIGWQLLECVAFMHDLRMIHTDLKPENILLVSSDYVKIPEYKGSRLQRDVCYKRVPKSSAIKVIDFGSTTYERQDQTYIVSTRHYRAPEVILGLGWSYPCDVWSVGCIIVELCTGEALFQTHENLEHLAMMERVLGPFPQQMLKKVDRHSEKYVRRGRLDWPDGATSRDSLKAVLKLPRLQNLIMQHVDHSAGELINMVQGLLRFDPSERITAREALRHPFFARRR |
| no binding | no binding | AFC1 (enzyme, UniProt P51566 1-467) MQSSVYRDKASSIAMILETQRNVEFPHRIVDKRPRKRPRLTWDAAPPLLPPPPPPTVFQPPLYYGPEFASGLVPNFVYPNMFYNGLPRQGSPPWRPDDKDGHYVFVVGDTLTPRYQILSKMGEGTFGQVLECFDNKNKEVVAIKVIRSINKYREAAMIEIDVLQRLTRHDVGGSRCVQIRNWFDYRNHICIVFEKLGPSLYDFLRKNSYRSFPIDLVRELGRQLLESVAYMHDLRLIHTDLKPENILLVSSEYIKIPDYKFLSRPTKDGSYFKNLPKSSAIKLIDFGSTTFEHQDHNYIVSTRHYRAPEVILGVGWNYPCDLWSIGCILVELCSGEALFQTHENLEHLAMMERVLGPLPPHMVLRADRRSEKYFRRGAKLDWPEGATSRDSLKAVWKLPRLPNLIMQHVDHSAGDLIDLLQGLLRYDPTERFKAREALNHPFFTRSREQSIPPFNPNPHPFLYNQKN |
| no binding | no binding | AFC3 (enzyme, UniProt P51568 1-400) MIANGFESMDKERVRKRPRMTWDEAPAEPEAKRAVIKGHGSDGRILSPPLRDDDRDGHYVFSLRDNLTPRYKILSKMGEGTFGRVLECWDRDTKEYVAIKIIRSIKKYRDAAMIEIDVLQKLVKSDKGRTRCVQMKNWFDYRNHICIVFEKLGPSLFDFLKRNKYSAFPLALVRDFGCQLLESVAYMHELQLVHTDLKPENILLVSSENVKLPDNKRSAANETHFRCLPKSSAIKLIDFGSTVCDNRIHHSIVQTRHYRSPEVILGLGWSYQCDLWSIGCILFELCTGEALFQTHDNLEHLAMMERALGPLPEHMTRKASRGAEKYFRRGCRLNWPEGANSRESIRAVKRLDRLKDMVSKHVDNTRSRFADLLYGLLAYDPSERLTANEALDHPFFKSSS |
| binds weakly | binds weakly | RSZ21 (protein, UniProt O81127 1-187) MTRVYVGNLDPRVTERELEDEFKAFGVLRNVWVARRPPGYAFLEFDDERDALDAISALDRKNGWRVELSHKDKGGRGGGGGRRGGIEDSKCYECGELGHFARECRRGRGSVRRRSPSPRRRRSPDYGYARRSISPRGRRSPPRRRSVTPPRRGRSYSRSPPYRGSRRDSPRRRDSPYGRRSPYANGV |
| no binding | no binding | Cyp65 (protein, UniProt Q9FJX0 1-595) MGKKQHSKDRMFITKTEWATEWGGAKSKENRTPFKSLPYYCCALTFLPFEDPVCTIDGSVFEITTIVPYIRKFGKHPVTGAPLKGEDLIPLIFHKNSEGEYHCPVLNKVFTEFTHIVAVKTTGNVFCYEAIKELNIKTKNWKELLTEEPFTRADLITIQNPNAVDGKVTVEFDHVKNGLKIDDEELKKMNSDPAYNINVSGDIKHMLADLGTDKAKEIALHGGGGNKARNERAAAIAAILESRSKIKEVSKAEQPKQTYSVVDAASASVFGRSADAAKAGSSDKTAARIAMHMAGDRTPVNSKMVKSRYSSGAASRSFTSSAFTPVTKNDFELIKVEKNPKKKGYVQFQTTHGDLNIELHCDIAPRACENFITLCERGYYNGVAFHRSIRNFMIQGGDPTGTGKGGESIWGKPFKDEPNSKLLHSGRGVVSMANSGPHTNGSQFFVLYKSATHLNYKHTVFGGVVGGLATLAAMENVPVDESDRPLEEIKIIEASVFVNPYTELDEEEEKEKAEKEKNEDKDIEKIGSWYSNPGSGTTEAGAGGGGVGKYLKAMSSTATKDTKGSLDSDISTIGVSKKRKTTASASTGFKDFSSW |
| binds weakly | binds weakly | SR34a (protein, UniProt A2RVS6 1-300) MSGRFSRSIYVGNLPGDIREHEIEDIFYKYGRIVDIELKVPPRPPCYCFVEFEHSRDAEDAIKGRDGYNLDGCRLRVELAHGGRGQSSSDRRGGYGGGGSGYGGGGGGGGSARFGVSRHSEFRVIVRGLPSSASWQDLKDHMRKAGDVCFAEVTRDSDGTYGVVDYTNYDDMKYAIRKLDDTEFRNPWARGFIRVKKYESSRSRSRSPSRSRSRSRSRSRSRGRGRSHSRSRSLSRSKSPRKDLSKSPRRSLSRSISKSRSPSPDKKKSPPRAMSRSKSRSRSRSRSPSKSPPKVREGSV |
| binds | binds | SCL33 (protein, UniProt Q9SEU4 1-287) MRGRSYTPSPPRGYGRRGRSPSPRGRYGGRSRDLPTSLLVRNLRHDCRQEDLRKSFEQFGPVKDIYLPRDYYTGDPRGFGFVQFMDPADAADAKHHMDGYLLLGRELTVVFAEENRKKPTEMRARERGGGRFRDRRRTPPRYYSRSRSPPPRRGRSRSRSGDYYSPPPRRHHPRSISPREERYDGRRSYSRSPASDGSRGRSLTPVRGKSRSLSPSPRRSISRSPRRSRSPSPKRNRSVSPRRSISRSPRRSRSPRRSRRSYTPEPARSRSQSPHGGQYDEDRSPSQ |
| binds | binds | MOS14 (protein, UniProt Q8GUL2 1-958) MEHQNAVKEALNALYHHPDDTVRVHADRWLQNFQGTLDAWQVADNLLHDSSSNLETLIFCSQTLRSKVQRDFEELPPGAFQKLRQSLTTLLKKFHKGPPKVRTQISIAVAALAVHVPAADWGDGGIISWLRDEMHMHPEYVPGFLELLTVLPEETFNYKIAARPDRRRQFEKELTSQMEAALSILSACLKISELKEQVLEAFASWLRLRHGIPGTVLACHPLVHAALSSLNCDPLSEASVNVISELIHHTASPSSGGISAQTPLIQVIVPQILSLQAHLRDSSKDEEDVKAIGRLFADVGDSYVELIATGSDEPMVIVHALLEVTAHPEFDIASMTFNFWHSLQLMLTKRESYSSLGSEASIEVERNRRLHIFQPAYQSLVSLVGFRVQYPEDYQGLSYEDLKEFKQTRYAVADVLIDAALILGGDTTLKILYMKLLEANAQTGNNFQDWRPAEAILFCIWAISNYVSVVEAEVMPQVMALLQNLPQQAQLLQTACLLVGAYSKWLNAAPASVSILPSIIRILMSGMGTSEDCAAAAALAFRHTCDDCRKNLCGYFEDLFNIYCMAINGGGGYKVSAEDSLNLVEALGMVVTELPLDQAKGALEKLCFSAASPLEEAAKEDLEKKHARELTVHIDRFAFLFRYVNHPEAVAAEINKHWAIFRVIFDARPWDMRTMESLCRACKYAVRTSGRYIIDTIGEMLEKIQFHYQQHHQPCFLYLSSEVIKIFGSDPSCAVYLKNLIETLFAHTTCLMTSIKEVTARPDIADDCFLLASRCLRYCPHLFIPSPIFPALVNCAMIGITVQHREACHSILTFLTDIFDLEKSVNEEQFVRIRDNIIIPRGATITRILIASLAGALPSSRLDTVTYSLLALTRTYRLQAVSWAKESVSLIPRTALTETESTKFLQALSDIAYGADVNSLIGQVEELSDVCRRNRTVQELVQAALKPLELNLVTAPVS |
| binds weakly | binds weakly | SCL28 (protein, UniProt Q1PDV2 1-236) MARARSRSRSYSPRPRDRSPPRERKGYDDNRLRERPSSRDHESSGPSGLLIRNLPLDARPNDLRDSFERFGPLKDIYLPRNYYTGEPRGFGFVKYRYAEDAAEAMKRMNHKVIGGREIAIVFAEENRKTPQEMRTTNGTSGRHGDYKRTSHRSPRRRYRSHSRSRSPPRRESRHSKVREDDLYSPRRRSRSISRSPLPRNEREYKSRNCRSPREERVLTPIRSRCLSRSRSRSLSR |
| binds | binds | SR34 (protein, UniProt O22315 1-303) MSSRSSRTVYVGNLPGDIREREVEDLFSKYGPVVQIDLKVPPRPPGYAFVEFDDARDAEDAIHGRDGYDFDGHRLRVELAHGGRRSSDDTRGSFNGGGRGGGRGRGDGGSRGPSRRSEFRVLVTGLPSSASWQDLKDHMRKGGDVCFSQVYRDARGTTGVVDYTCYEDMKYALKKLDDTEFRNAFSNGYVRVREYDSRKDSRSPSRGRSYSKSRSRSRGRSVSRSRSRSRSRSRSPKAKSSRRSPAKSTSRSPGPRSKSRSPSPRRSRSRSRSPLPSVQKEGSKSPSKPSPAKSPIHTRSPSR |
